Laboratory results reported in paper PMC5149022 (Iranian Journal of Pharmaceutical Research : IJPR, 2016).

How the values were obtained:
[1] = general procedure: Fmoc solid-phase peptide synthesis; Sieber amide resin; DIC/HOBt/DIPEA; conditions: whole synthesis, overall, based on removal of the first Fmoc group, side-chain lactam ring
[2] = general procedure: Fmoc solid-phase peptide synthesis; Sieber amide resin, substitution 0.65 mmol/g; DIC/HOBt/DIPEA; conditions: whole synthesis, UV 280 nm, side-chain lactam ring

What does the source list for [HYNIC-GABA-Nle]-CycMSHhept?
isolated yield [1]: 35%; final HPLC purity [2]: >98%
